Experimental data as given in patent publication US8158661B2, “GSK-3 inhibitors” (Noscira, S.A., priority 2004, dated 2012).

Test: Binding to GSH (incubation, HPLC-UV/MS)
Assay type: in vitro ADME
Details: compound and glutathione 1 mM each, 30 minutes at room temperature

SMILES	% unbinding compound, glutathione
O=c1sn(CCc2ccccc2)c(=O)n1Cc1ccccc1 [Compound 1, 2-Phenethyl-4-benzyl-(1,2,4)thiadiazolidine-3,5-dione]	34.7%
Cc1ccc(Cn2sc(=O)n(Cc3ccccc3)c2=O)cc1 [Compound 4, 4-Benzyl-2-(4-methyl-benzyl)-[1,2,4]thiadiazolidine-3,5-dione]	32.3%
O=c1sn(-c2ccccc2Cc2ccccc2)c(=O)n1Cc1ccccc1 [Compound 9, 4-Benzyl-2-(2-benzyl-phenyl)-[1,2,4]thiadiazolidine-3,5-dione]	71.7%
Cc1cccc(C(C)(C)C)c1-n1sc(=O)n(Cc2ccccc2)c1=O [Compound 8, 4-Benzyl-2-(2-tert-butyl-6-methyl-phenyl)-(1,2,4)thiadiazolidine-3,5-dione]	59.4%
O=c1sn(-c2ccc(Oc3ccccc3)cc2)c(=O)n1Cc1ccccc1 [Compound 10, 4-Benzyl-2-(4-phenoxyphenyl)-[1,2,4]thiadiazolidine-3,5-dione]	100.0%
O=c1sn(Cc2ccccc2)c(=O)n1Cc1ccccc1 [2,4-dibenzyl-1,2,4-thiadiazolidine-3,5-dione, reference compound]	17.1%
O=c1sn(C23CC4CC(CC(C4)C2)C3)c(=O)n1Cc1ccccc1 [Compound 3, 2-(1-adamantyl)-4-benzyl-[1,2,4]thiadiazolidine-3,5-dione]	15.0%
O=c1sn(C(c2ccccc2)c2ccccc2)c(=O)n1Cc1ccccc1 [Compound 6, 4-Benzyl-2-diphenylmethyl-1,2,4-thiadiazolidine-3,5-dione]	52.0%
COc1ccc(Cn2sc(=O)n(Cc3ccccc3)c2=O)cc1 [Compound 7, 4-Benzyl-2-(4-methoxybenzyl)-[1,2,4]thiadiazolidine-3,5-dione]	31.0%
O=c1sn(-c2cccc3ccccc23)c(=O)n1Cc1ccccc1 [Compound 2, 4-Benzyl-2-naphthalen-1-yl-[1,2,4]thiadiazolidine-3,5-dione]	95.0%
